# From PubChem BioAssay AID493014 (National Center for Advancing Translational Sciences (NCATS), 2011)
# Out of some 340,000 compounds screened, about 170 (0.05%) were called active. This list was built around the results that the source calls inconclusive (neither active nor inactive); the mix of calls is not that of the screen. Calls come from the whole dose curve; as a rule, active = well fitted inhibition curve with a large enough effect in the signal ratio, with a control signal flat (not every such curve was filed as active); inconclusive = small, poorly fitted or top-dose-only effect, or effect the other way, or a change in a side signal; inactive = flat fitted curve, though single readings scatter; the % refers to the signal ratio. A potency beside an inconclusive call is a rough fit, not a confirmed value.
# Test: qHTS Assay to Find Inhibitors of Chronic Active B-Cell Receptor Signaling;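 for activity change, negative = inhibition: plate controls were basal doxycycline-induced cells for no effect and cells given 10 µM MG132 for full effect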
# Settings: ABC-DLBCL IkBa-CBG/CBR reporter, luminescence ratio (green luciferase fused to IkBa over red control in TMD8 lymphoma cells), 4 h; activity change, negative = inhibition: at 46.1 µM (top of the series)
# Procedure, shortened: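 Cell line TMD8 (human ABC DLBCL), stably expressing tet-inducible CBG68-IkBa fusion and CBR; IMDM/0.5% FBS; cpd up to 46 uM; dox induction, 4 h, 37C/5% CO2; dual luminescence; green/red ratio; MG132 control.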
# Potency is the fitted concentration of half-maximal effect.
Compound,Potency,"activity change, negative = inhibition"
COc1ccc(S(=O)(=O)Nc2cccc(SC)c2)cc1C(=O)N1CCOCC1,"inconclusive: 35.5 µM [falling, partial curve, poor fit]",
COc1cccc2c(=O)c(C(=O)O)c[nH]c12,,inconclusive: 21.2%
COc1ccc(C(O)c2nccc3cc(OC)c(OC)cc23)cc1OC (configuration not stated),,inconclusive: 2.6%
Cc1nc(-c2c(C(F)(F)F)noc2-c2ccc(O)cc2O)cs1,"inconclusive: 25.1 µM [falling, single point]",
CCOc1ccc(OCC(=O)NCCS(=O)(=O)N2CCN(c3cccc(Cl)c3)CC2)cc1,,inactive: -0.117%
O=C(COc1ccccc1C(=O)NCC1CCCO1)Nc1ccc(Br)cc1 (configuration not stated),"inconclusive: 6.31 µM [falling, full curve, poor fit]",
COc1cccc(C(=O)NN2CC(O)=C(c3nc4ccccc4n3C)C2=N)c1,"inconclusive: 12.6 µM [falling, partial curve, poor fit]",
CC(C)(C)c1cc(C(=O)NCc2cc(F)cc3c2OCOC3)n(Cc2ccccc2)n1,,inconclusive: -12.5%
CCCCc1c(C)nc2nc(SCc3ccc(Cl)cc3)[nH]n2c1=O,"inconclusive: 35.5 µM [rising, single point]",
NC(=O)CC(NC(=O)c1ccc(Br)cc1)c1ccc(N2CCCCCCC2)c([N+](=O)[O-])c1 (configuration not stated),,inconclusive: -7.78%
CC1=NN(C(=O)c2c(Br)c(C)nn2C)C(O)(C(F)(F)F)C1 (configuration not stated),"inconclusive: 25.9 µM [rising, partial curve, poor fit]",
CCOc1ccccc1NC(=O)N1CCC(C(=O)c2ccc(F)cc2)CC1,"inconclusive: 3.26 µM [falling, partial curve, poor fit]",
COc1ccc(CNC(=O)N2CCc3ccccc3C2)cc1Cl,"inconclusive: 12.6 µM [falling, partial curve, poor fit]",
CC[C@@H](C)[C@@H]1CN([C@@H](CN2CCC[C@H]2CN2C(N)=NC[C@H]2C(C)C)C(C)C)C(=N)N1CCCC1CCCC1,,inconclusive: -0.484%
CCCOC(=O)CSc1nnc(-c2ccccc2)o1,"inconclusive: 10 µM [rising, partial curve, poor fit]",
CCOC(=O)C(=Cc1ccccc1OC)C(=O)OCC,,inconclusive: -4.48%
O=C(N/N=C1\CCCCc2ccccc21)c1ccccn1,"inconclusive: 35.5 µM [falling, single point]",
CSc1cccc(NC(=O)C2CCCN(S(=O)(=O)c3cccs3)C2)c1 (configuration not stated),,inconclusive: -18.2%
Oc1ccccc1C1=Nc2ccccc2N=C(c2cccs2)C1,"inconclusive: 35.5 µM [rising, partial curve, poor fit]",

# Part of the list above in order of molecular weight, descending.
Compound,Potency,"activity change, negative = inhibition"
CCOc1ccc(OCC(=O)NCCS(=O)(=O)N2CCN(c3cccc(Cl)c3)CC2)cc1,,inactive: -0.117%
COc1cccc(C(=O)NN2CC(O)=C(c3nc4ccccc4n3C)C2=N)c1,"inconclusive: 12.6 µM [falling, partial curve, poor fit]",
Oc1ccccc1C1=Nc2ccccc2N=C(c2cccs2)C1,"inconclusive: 35.5 µM [rising, partial curve, poor fit]",

# Additional entries follow:

Compound,Potency,"activity change, negative = inhibition"
COc1cc(/C=N/NC(=O)CCn2c3ccccc3c3ccccc32)ccc1O,"inconclusive: 13 µM [falling, partial curve, poor fit]",
O=C(CNc1ccc(Br)cc1)Nc1ccc(S(=O)(=O)N2CCCC2)cc1,,inconclusive: 1.06%
COc1ccc(C2=NCC(CSc3nccc(=O)[nH]3)S2)cc1 (configuration not stated),"inconclusive: 12.6 µM [falling, single point]",
O=C(O)/C(=C\c1c(C(=O)O)[nH]c2cc(Cl)cc(Cl)c12)c1ccccc1,,inactive: -12.3%
COC(=O)C1=C(C)N(CCc2ccccc2)C(=O)/C1=C\c1ccco1,,inconclusive: 0.388%
COc1ccc(/C(C)=N/Nc2nc3ccccc3nc2C)cc1OC,"inconclusive: 35.5 µM [falling, single point]",
CC[N+]1=C(C)C(C)(C)c2cc(C)ccc21,,inactive: 13.4%
Oc1ccc(/C=N/N(Cc2ccccc2)c2ccccc2)cc1,"inconclusive: 20 µM [falling, single point]",
CC(=O)OC1COC(n2ccc3cc([N+](=O)[O-])ccc32)C(OC(C)=O)C1OC(C)=O (configuration not stated),"inconclusive: 13 µM [falling, single point]",
CCN(CC)S(=O)(=O)c1cc(NC(=O)Cc2n[nH]c(=O)c3ccccc23)ccc1C,"inconclusive: 11.2 µM [falling, partial curve, poor fit]",
Nc1c(N=Nc2cccc(Cl)c2)c(=O)[nH]n1-c1ccccc1,,inconclusive: 14.4%
CCOC(=O)N1CCN(S(=O)(=O)c2ccc(C)cc2)CC1,,inactive: 0.549%
Cn1nc(C(=O)N2CCN(c3ccccc3F)CC2)c2c1-c1ccccc1S(=O)(=O)C2,,inactive: -22.3%
Nc1cc(N)cc(-c2nc3ccccc3[nH]2)c1,,inconclusive: -0.506%
O=C(Nc1ccc(Br)cc1)Nc1ccccc1Cl,"inconclusive: 12.6 µM [falling, partial curve]",
Cc1cc(NC(=O)C2CCCCC2)ccc1NC(=O)c1ccccc1Cl,,inconclusive: 7.12%
COc1cc(Br)c(C(=O)c2nccc3cc(OC)c(OC)cc23)cc1OC,,inactive: -3.47%
Cc1ccccc1NC(=S)NC1CCN(Cc2ccccc2)CC1,,inactive: 2.86%
